Measured values published in the supplement of paper PMC4604168 (melanoma cell lines).
The other results are listed elsewhere or left out. Repeats are few or missing, and single values can be far off.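 Imaging used 1,536-well plates; nuclei positive for cleaved PARP by antibody were divided by total DNA-stained nuclei to yield the apoptosis fraction. Doses for screening kept most cells viable, and cell lines differ markedly in resting and induced cleaved-PARP levels.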

Experiments:
Test in all cases: cleaved PARP positive nuclei fraction relative to DMSO control; melanoma cells; higher = more apoptosis
Details in all cases: library dose: low library concentration; 72 h
[1] = test system: MZ2-MEL
[2] = test system: MeWo
[3] = test system: RPMI7951
[4] = test system: RVH-421
[5] = test system: SkMel28
[6] = test system: SkMel2
[7] = test system: SkMel30
[8] = test system: UACC62
[9] = test system: WM115
[10] = test system: WM1716
[11] = test system: WM1745
[12] = test system: WM3526
[13] = test system: WM3619
[14] = test system: WM451Lu

Row | SMILES | cleaved PARP positive nuclei fraction [1] [%] | cleaved PARP positive nuclei fraction [2] [%] | cleaved PARP positive nuclei fraction [3] [%] | cleaved PARP positive nuclei fraction [4] [%] | cleaved PARP positive nuclei fraction [5] [%] | cleaved PARP positive nuclei fraction [6] [%] | cleaved PARP positive nuclei fraction [7] [%] | cleaved PARP positive nuclei fraction [8] [%] | cleaved PARP positive nuclei fraction [9] [%] | cleaved PARP positive nuclei fraction [10] [%] | cleaved PARP positive nuclei fraction [11] [%] | cleaved PARP positive nuclei fraction [12] [%] | cleaved PARP positive nuclei fraction [13] [%] | cleaved PARP positive nuclei fraction [14] [%]
1 | Cn1sc(=O)n(Cc2ccccc2)c1=O + Cc1nc(Nc2ncc(C(=O)Nc3c(C)cccc3Cl)s2)cc(N2CCN(CCO)CC2)n1 [dasatanib] (first compound 0.4 µM, partner dose 0.004 µM) | 23.2 | 93.6 | 84.4 | 177 | 90.2 | 36.5 | 128 | 336 | 73.7 | 44.6 | 114 | 173 | 92.2 | 196
2 | Cn1cnc2c(F)c(Nc3ccc(Br)cc3Cl)c(C(=O)NOCCO)cc21 [selumetinib] + NC1(c2ccc(-c3nc4ccn5c(=O)[nH]nc5c4cc3-c3ccccc3)cc2)CCC1 [MK2206] (first compound 0.015 µM, partner dose 0.4 µM) | 238 | 178 | 135 | 88.3 | 86.3 | 83.7 | 68.2 | 169 | 314 | 145 | 108 | 113 | 160 | 85.4
3 | NC(=O)c1ccc(N(C(N)=O)c2c(F)cccc2F)nc1-c1ccc(F)cc1F + Cn1nnc2c(C(N)=O)ncn2c1=O [temozolomide] (first compound 0.4 µM, partner dose 2 µM) | 89.7 | 84.5 | 130 | 198 | 43.6 | 93.7 | 90.9 | 120 | 144 | 192 | 91.4 | 24.7 | 147 | 44.1
4 | CCN(CC)CCNC(=O)c1c(C)[nH]c(/C=C2\C(=O)Nc3ccc(F)cc32)c1C [sunitinib] + C=C(c1ccc(C(=O)O)cc1)c1cc2c(cc1C)C(C)(C)CCC2(C)C [Bexarotene] (first compound 0.4 µM, partner dose 2 µM) | 47.1 | 177 | 44.7 | 39.7 | 76.8 | 68.3 | 43.6 | 229 | 111 | 105 | 114 | 50.1 | 65.9 | 370
5 | Cn1sc(=O)n(Cc2ccccc2)c1=O + Cn1nnc2c(C(N)=O)ncn2c1=O [temozolomide] (first compound 0.4 µM, partner dose 2 µM) | 178 | 98.2 | 145 | 200 | 73.7 | 91.6 | 47.9 | 258 | 132 | 91.4 | 97.1 | 33.4 | 92.9 | 49.3
6 | NC1(c2ccc(-c3nc4ccn5c(=O)[nH]nc5c4cc3-c3ccccc3)cc2)CCC1 + Cn1nnc2c(C(N)=O)ncn2c1=O [temozolomide] (first compound 0.4 µM, partner dose 2 µM) | 75.8 | 566 | 108 | 404 | 259 | 72.4 | 366 | 163 | 287 | 168 | 113 | 57.7 | 128 | 86.9
7 | Cn1cnc2c(F)c(Nc3ccc(Br)cc3Cl)c(C(=O)NOCCO)cc21 [selumetinib] + Nc1ncn([C@H]2C[C@H](O)[C@@H](CO)O2)c(=O)n1 [decitabine] (first compound 0.015 µM, partner dose 0.1 µM) | 497 | 184 | 288 | 91.7 | 91.1 | 193 | 61 | 243 | 310 | 36.5 | 106 | 158 | 111 | 64.6
8 | CCN(CC)CCNC(=O)c1c(C)[nH]c(/C=C2\C(=O)Nc3ccc(F)cc32)c1C [sunitinib] + O=C(O)c1ccc2c(c1)nc(Nc1cccc(Cl)c1)c1ccncc12 [CX4945] (first compound 0.4 µM, partner dose 0.4 µM) | 41.7 | 122 | 208 | 199 | 105 | 29 | 338 | 280 | 220 | 112 | 114 | 56.5 | 80.2 | 48.6
9 | CCN(CC)CCNC(=O)c1c(C)[nH]c(/C=C2\C(=O)Nc3ccc(F)cc32)c1C [sunitinib] + Nc1ccn([C@@H]2O[C@H](CO)[C@@H](O)C2(F)F)c(=O)n1 [gemcitabine] (first compound 0.4 µM, partner dose 0.0004 µM) | 63.6 | 144 | 171 | 161 | 73.4 | 106 | 27.4 | 77.1 | 108 | 47.6 | 123 | 65.7 | 110 | 281
